Reference: paper PMC6821256
Changes are numbered by the printed parent chain. These are yes or no findings as the source states them, for the method shown. Some binding calls cover weakened binding; strength is not graded here. For part of these data: Where a sequence is shown, tags or fusion partners need not be part of it.

Tests used:
[1] = target: T1, Rec10 (yeast two-hybrid construct) (Schizosaccharomyces pombe) (UniProt Q09823); test: two-hybrid; S. cerevisiae AH109, pGADT7 and pGBKT7 plasmids; growth on SD without leucine, tryptophan, histidine and adenine, 5 days at 30°C
T1 sequence: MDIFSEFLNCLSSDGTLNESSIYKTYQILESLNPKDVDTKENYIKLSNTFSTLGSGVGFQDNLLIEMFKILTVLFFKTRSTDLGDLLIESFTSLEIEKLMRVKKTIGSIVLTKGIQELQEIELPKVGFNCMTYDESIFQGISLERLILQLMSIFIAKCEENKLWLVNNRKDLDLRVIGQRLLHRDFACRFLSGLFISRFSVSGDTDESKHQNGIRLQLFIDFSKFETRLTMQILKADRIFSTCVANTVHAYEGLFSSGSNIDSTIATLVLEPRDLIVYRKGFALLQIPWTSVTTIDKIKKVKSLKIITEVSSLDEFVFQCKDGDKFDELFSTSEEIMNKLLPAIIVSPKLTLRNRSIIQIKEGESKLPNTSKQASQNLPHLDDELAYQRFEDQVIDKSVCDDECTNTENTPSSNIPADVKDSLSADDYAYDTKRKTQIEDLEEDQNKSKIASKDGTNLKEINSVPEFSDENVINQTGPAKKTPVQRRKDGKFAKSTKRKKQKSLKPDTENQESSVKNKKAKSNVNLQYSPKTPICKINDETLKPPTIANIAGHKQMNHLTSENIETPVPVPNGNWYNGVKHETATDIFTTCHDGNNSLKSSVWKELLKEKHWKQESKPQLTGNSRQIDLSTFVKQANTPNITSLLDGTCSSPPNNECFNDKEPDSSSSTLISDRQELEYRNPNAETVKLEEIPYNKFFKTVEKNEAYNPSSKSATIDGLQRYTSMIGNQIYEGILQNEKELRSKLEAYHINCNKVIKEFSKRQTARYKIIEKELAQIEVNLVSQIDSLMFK

[2] = target: T2, Rec15 full-length (FL, 1-180; yeast two-hybrid construct) (Schizosaccharomyces pombe) (UniProt Q09094); test: as above
T2 sequence: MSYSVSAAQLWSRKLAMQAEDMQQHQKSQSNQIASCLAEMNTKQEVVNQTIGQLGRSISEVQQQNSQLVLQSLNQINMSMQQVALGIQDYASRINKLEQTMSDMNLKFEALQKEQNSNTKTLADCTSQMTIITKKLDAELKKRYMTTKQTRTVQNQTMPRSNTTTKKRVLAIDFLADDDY

[3] = target: T3, Mde2 (yeast two-hybrid construct) (Schizosaccharomyces pombe) (UniProt P87309); test: as above
T3 sequence: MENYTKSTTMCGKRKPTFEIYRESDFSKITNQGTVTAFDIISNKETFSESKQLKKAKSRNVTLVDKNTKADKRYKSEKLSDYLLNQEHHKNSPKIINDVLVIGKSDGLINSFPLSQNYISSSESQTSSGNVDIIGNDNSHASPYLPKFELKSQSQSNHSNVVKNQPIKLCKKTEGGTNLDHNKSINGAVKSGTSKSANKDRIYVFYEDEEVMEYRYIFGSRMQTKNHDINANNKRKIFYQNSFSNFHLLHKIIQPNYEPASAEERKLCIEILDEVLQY

[4] = target: T1, Rec10 (yeast two-hybrid construct) (Schizosaccharomyces pombe); test: yeast three-hybrid; S. cerevisiae Y190, bait Rec10 and prey Rec15 (pGADT7, pGBKT7) with the empty pADE1 (no Hop1); growth on SD w/o LWAH + 10 mM 3-AT, 5 days at 30°C
[5] = target: T4, Rec10-E309A (yeast two-hybrid construct) (Schizosaccharomyces pombe) (UniProt Q09823); test: yeast three-hybrid; S. cerevisiae Y190, bait Rec10 and prey Rec15 (pGADT7, pGBKT7) with pADE1 expressing wild-type Hop1 under pTDH3; growth on SD w/o LWAH + 10 mM 3-AT, 5 days at 30°C
T4 sequence: T1 sequence with E309A

[6] = target: T2, Rec15 full-length (FL, 1-180; yeast two-hybrid construct) (Schizosaccharomyces pombe); test: as above

Measured: binding

B1: Rec15 full-length (FL, 1-180; yeast two-hybrid construct) (protein, UniProt Q09094 1-180)
chain: T2 sequence
binds: [1] | [2] | [3] | [4]

B2: Hop1 expressed from pADE1 (third protein of the yeast three-hybrid assay) (protein, UniProt Q9P7P2 1-528)
chain: MNSYKEEILQTKSDFTLKNLIFFAISTLCYKRALFNENCYKKVNFEIEHFKGADFDCQLKPTVVSLQAGVDKEADSFLEMMKTYIFSLVSMKVPFTVYLIISSQCKSILEDDAVEKEIFSFTINPGSEEKICCESFVSYQRSERFVIKLFLSGNVKTECKDEEKVVQIITKMERFQLSKGEATKAGVFLNTVETKDCMSWLNRGEFKDIVSFYESNNGIAISHCSHAFVPISTEKIMINKESSLFDSQEKIDSQLEKFLQPLKYDEIGSTQILDEQSVEKSLSQGKCEKMQNESRGLREIKNNNPCEEVKKSNWLKKNISGSDKVDKAEKKKALLNCECGDSTEDSEMFQCERCDGWVHCACYGFESDSDPRQPNQLLCYTCLLVDSESSLYDRMTMLVAYRRAIRCIWASEYQGFQKLAARLNCSYADAKRIEERLVNENIIYKEKKRKWIYFTNKSPEMVSYLREKYFTPSRWISHLNFQNYRQENQRVNMRSFLRPERMEVIERPKKVSKTSNTKETDTMKPLRI
binds: [5] | [6]
